Source: the supplement of paper PMC5949888
Most values lie at the floor of the assay. Slopes are relative: functional sequences can read slightly below zero.

These substances were tested on Saccharomyces cerevisiae PS128 hsf1 delta, HSF1(1-493) fusion (assay: growth estimate (transactivation domain function in HSF1 fusion, heat-shock survival) (a.u. (slope of normalised read count over time)); higher = stronger growth at 37°C, i.e. more transactivation activity). Details: library: random library.
Substance NRMAV has a growth estimate of under -0.25.
In the case of LFSYQG, the growth estimate is reported as under -0.25.
RFTYDRARNKSALQVGFLLS gave a growth estimate of under -0.25.
RCADVGTIRPVPK gave a growth estimate of under -0.25.
In the case of LPINLCGSLSYQKPDEVISS, the growth estimate is reported as under -0.25.
In the case of PSYIRRL, the growth estimate is reported as under -0.25.
Work on GDIVNGNSKNRRAYSMCPRR yielded a growth estimate of under -0.25.
For RYI, the growth estimate was under -0.25.
Substance LDSQNCRTGLIRGLPATGIA has a growth estimate of under -0.25.
PSRQVG was tested, and the growth estimate was under -0.25.
For AYHGLPS, the growth estimate was under -0.25.
CVVMGSI was tested, and the growth estimate was under -0.25.
Work on NGLVRYVIRFQQVHNPHGAR yielded a growth estimate of under -0.25.
HPVVG was tested, and the growth estimate was under -0.25.
APLASAILARCGRPTSAGLT showed a growth estimate of under -0.25.
Substance IWLTRKCIGVFKR has a growth estimate of under -0.25.
With GSSYALVTRTGRRTVGTQLK the growth estimate was under -0.25.
ASTLTLA showed a growth estimate of under -0.25.
Substance YKGGCAEVGGLFTWVLLDVP has a growth estimate of under -0.25.
PVCALGTRSVEYT was tested, and the growth estimate was under -0.25.
Substance SHDSQCTQFAR has a growth estimate of -0.246.
SMKSCQT gave a growth estimate of under -0.25.
IGPLIRFVCHLVEISGLMGK gave a growth estimate of under -0.25.
IQLRNWRIGRIVAHLGSRSA gave a growth estimate of under -0.25.
RTRDGVS was tested, and the growth estimate was under -0.25.
For PDAFSQEVFA, the growth estimate was under -0.25.
In the case of RQYYRSRRYEPILCTNHIIL, the growth estimate is reported as under -0.25.
YARASSVITYWGLRVPDGFG showed a growth estimate of under -0.25.
With LSLHDFPYV the growth estimate was under -0.25.
With PTSFRSHSP the growth estimate was under -0.25.
HTENAQHRTSHRHSVERENA gave a growth estimate of under -0.25.
RITSGRSPLWESEIDPKWDK was tested, and the growth estimate was under -0.25.
ILGTASICPRPDGVQRR gave a growth estimate of under -0.25.
ARIVPPLGVSLVRSICP was tested, and the growth estimate was under -0.25.
In the case of RDGVVM, the growth estimate is reported as under -0.25.
Substance GSIGFKLHN has a growth estimate of under -0.25.
Work on SLNVGKSQTV yielded a growth estimate of under -0.25.
With NSICNGHKNGKGAYLAFKLL the growth estimate was under -0.25.
Substance PPGV has a growth estimate of under -0.25.
For RGMPAPPVREAEHGGTSYSL, the growth estimate was under -0.25.
With GVGVSWKYVNRWWGSFDRAV the growth estimate was under -0.25.
Work on WTENQHFRTYKGVSDSTNVL yielded a growth estimate of under -0.25.
For AVVLMGNCITEWNSVEKALP, the growth estimate was under -0.25.
In the case of SLYGIAELLLDVETSNSGRQ, the growth estimate is reported as -0.192.
GSGGHAISWVTY was tested, and the growth estimate was under -0.25.
Work on LNKGTNFRPKFSLGWTCECS yielded a growth estimate of -0.187.
Work on KYATA yielded a growth estimate of under -0.25.
In the case of DVSPAPYGVWGPGPNH, the growth estimate is reported as under -0.25.
With CVAWRPRKIRGGLVSWD the growth estimate was under -0.25.
In the case of GWAIFITWTYHGGCQACGPL, the growth estimate is reported as under -0.25.
RSQKRTVCRTRCRRQRPEVA gave a growth estimate of under -0.25.
Substance DRVFVNCQTAFDQVTEHEYC has a growth estimate of under -0.25.
Work on RPWHLLDFVSLVLRVFRIPV yielded a growth estimate of under -0.25.
Substance LRPVSGPGHSNSRPKQLKPC has a growth estimate of under -0.25.
In the case of DPGS, the growth estimate is reported as under -0.25.
With PIYYLRNSFPYSPVSNRYSG the growth estimate was under -0.25.
Substance IGVESLPIGRVVPWHVGLTG has a growth estimate of under -0.25.
SEKGWVLSSAQSNGGVSLHT was tested, and the growth estimate was under -0.25.
VVMGWGRLLYVMCQDLGTNR showed a growth estimate of under -0.25.
Work on IPTDVIN yielded a growth estimate of under -0.25.
Work on QLFLQALCSMVGGGDR yielded a growth estimate of under -0.25.
TSRPCTL gave a growth estimate of under -0.25.
In the case of SYHFKSKACSGVFRIRLGYA, the growth estimate is reported as under -0.25.
Substance RRMGAYSRRALDHRNPHRCP has a growth estimate of under -0.25.
Work on DNPWV yielded a growth estimate of under -0.25.
EVFPEQLRVSSP was tested, and the growth estimate was under -0.25.
For GTSETGNER, the growth estimate was under -0.25.
HYLIPIREFNHD gave a growth estimate of under -0.25.
GPLKGRGYVASLSFCSPLYV showed a growth estimate of under -0.25.
With FALSPITGLGMSGKEDTCCV the growth estimate was under -0.25.
VATAQ gave a growth estimate of under -0.25.
LGPKLG was tested, and the growth estimate was under -0.25.
Work on SSGRPMK yielded a growth estimate of under -0.25.
SVNGRCNHLRWSLSSGRVD gave a growth estimate of under -0.25.
In the case of YIARTLGSGVTTYCDPH, the growth estimate is reported as under -0.25.
In the case of VLLGWGSSPSISPPRKGDPV, the growth estimate is reported as under -0.25.
EVIGSGQALGYRPNRDMVTL was tested, and the growth estimate was under -0.25.
With VQLSENLNLEIRTAGE the growth estimate was under -0.25.
RLAMRDNGRYLSFGLVSVTG gave a growth estimate of under -0.25.
GIARWGRLWWAASRGLPP was tested, and the growth estimate was under -0.25.
LFPSHNRLVIAPGLPVPAVR showed a growth estimate of -0.243.
VRTLS was tested, and the growth estimate was under -0.25.
QRYLAGGRDVPFPPSVKRPA gave a growth estimate of under -0.25.
GGAEWDAWYCELVMTVYVLR was tested, and the growth estimate was under -0.25.
In the case of TIYCWQGESLASTNVAK, the growth estimate is reported as under -0.25.
Substance GEGVPHCQSVSGSGTGFSEI has a growth estimate of under -0.25.
Work on KRERP yielded a growth estimate of under -0.25.
For PAN, the growth estimate was under -0.25.
RIRSTTGERRDGASPIKCVR showed a growth estimate of under -0.25.
IRRTVSLGGGCTSRN was tested, and the growth estimate was under -0.25.
For YADDGTFSNLVRPEATRSLR, the growth estimate was -0.246.
ARREDCGS gave a growth estimate of under -0.25.
LIRWTGYGATLRR gave a growth estimate of under -0.25.
DLITSLYLETAV was tested, and the growth estimate was under -0.25.
NQSLAKWIDVDLKFLLRVLR was tested, and the growth estimate was under -0.25.
In the case of LGWCTAWGRFNLRISFSADC, the growth estimate is reported as under -0.25.
VYPCD showed a growth estimate of under -0.25.
VSAVGRGTLRSFSVERFLPD gave a growth estimate of under -0.25.
For QLGPFPVTVIVLLAALQEGL, the growth estimate was under -0.25.
Substance TCCSPRHANPGGTLSHRWFI has a growth estimate of under -0.25.
FRGACRVASRNSMVSMCCVC gave a growth estimate of under -0.25.
Substance NCHSMLGASIMCL has a growth estimate of -0.167.
In the case of LYSQGARNVHKLALWVDSGI, the growth estimate is reported as under -0.25.
LSICTRGCLDSWSAPAKKES was tested, and the growth estimate was -0.243.
In the case of RVVPWNILDQTSSPTS, the growth estimate is reported as under -0.25.
In the case of SCSTPPNYTERVYLVVSASS, the growth estimate is reported as under -0.25.
QPRLLHT was tested, and the growth estimate was under -0.25.
For KQPLIVSFHSSGMPVPGRVN, the growth estimate was under -0.25.
NNGSRWRI gave a growth estimate of under -0.25.
In the case of NNPSAPQGSGMAATVGTYSS, the growth estimate is reported as under -0.25.
NLRHWQAERGICRGLCLTVC was tested, and the growth estimate was under -0.25.
SAYRGE showed a growth estimate of under -0.25.
LDSTRYHNEKLTFTDDNSSS gave a growth estimate of under -0.25.
Substance CRKANKQGLSGLQ has a growth estimate of under -0.25.
In the case of PYPAPVTACF, the growth estimate is reported as under -0.25.
For ARASLRRDLIRGGTEAHNMV, the growth estimate was under -0.25.
Substance MMEGLRYNADY has a growth estimate of under -0.25.
MPRGLAK showed a growth estimate of under -0.25.
Substance PTFS has a growth estimate of -0.243.
For QSNDIVVLYGNHTSHQGHQW, the growth estimate was under -0.25.
Substance CTVRLTRFPVQPSRRFSGFP has a growth estimate of under -0.25.
For RQGGEFTAIGYLQHYQAYPC, the growth estimate was under -0.25.
Work on SGVYKPLASIPDRRATYWDS yielded a growth estimate of under -0.25.
ISIRYPVITRIILSGYRG showed a growth estimate of under -0.25.
CHVVFTSAFLRKRRLYSRTG showed a growth estimate of under -0.25.
CGATKTCPCFKAR was tested, and the growth estimate was under -0.25.
Substance RKRSNSRDGAGWPVAVIRPL has a growth estimate of under -0.25.
For AGSRAVL, the growth estimate was -0.243.
MGLSQGGIGSSARLSVWRVR gave a growth estimate of under -0.25.
LRYDGGVVNSV was tested, and the growth estimate was under -0.25.
Work on NAVLLREKCQPVTPSSKGD yielded a growth estimate of under -0.25.
For GSV, the growth estimate was under -0.25.
LLIIQCLVVWRTWV gave a growth estimate of under -0.25.
PVGQMQRR showed a growth estimate of under -0.25.
With QFP the growth estimate was -0.25.
In the case of FGNA, the growth estimate is reported as under -0.25.
LYIA gave a growth estimate of under -0.25.
Substance TRVG has a growth estimate of under -0.25.
Substance RFRLIYKRPKLRQYLGRPSM has a growth estimate of under -0.25.
Work on IRRSIPDRPG yielded a growth estimate of under -0.25.
GSRLLRCRACHGNSLRIYPL showed a growth estimate of under -0.25.
RVIDSWD showed a growth estimate of under -0.25.
Substance TAGPSQV has a growth estimate of under -0.25.
In the case of SGDMLPYVPVR, the growth estimate is reported as under -0.25.
In the case of PHDVYKVEKGFFTATF, the growth estimate is reported as under -0.25.
In the case of HCLAGTGVQSVEKVLALYAD, the growth estimate is reported as under -0.25.
RWRLNKS was tested, and the growth estimate was under -0.25.
With ECRIR the growth estimate was under -0.25.
In the case of GNLLGLREWTVYVGRFERPI, the growth estimate is reported as under -0.25.
IVRNFG was tested, and the growth estimate was under -0.25.
YGSLCCSAPSDSKYGSSG showed a growth estimate of under -0.25.
YQRMNHLR showed a growth estimate of under -0.25.
For RSNNAMNIVGTVPSSMRAAD, the growth estimate was -0.241.
Work on ILVKLMVVYSCNSNALERML yielded a growth estimate of under -0.25.
LMQVAGNATALL gave a growth estimate of under -0.25.
With EMGGWGPTLTHP the growth estimate was 0.0974.
Work on WPAATQVHVRTNL yielded a growth estimate of under -0.25.
Substance KCGSSC has a growth estimate of under -0.25.
With ERT the growth estimate was under -0.25.
YMGRRPWASGNVSPI showed a growth estimate of under -0.25.
